Earlier results, collected in patent US20170348343A1, “METHODS OF TREATING HEPATITIS E VIRAL INFECTION” (Gilead Pharmasset LLC, priority 2016, published 2017).
Some of these results come from one statement about several compounds together.

Test system: Hepatitis E virus (HEV)
Details: reduction of immunosuppressive therapy, ribavirin or pegylated interferon-α; immunocompromised patients with persistent HEV; cited from earlier work

Structure (SMILES): NC(=O)c1ncn([C@@H]2O[C@H](CO)[C@@H](O)[C@H]2O)n1 [ribavirin]
- viral clearance: up to 78 % of patients
